Taken from: PubChem BioAssay AID743121 (NCATS, 2013)
Test: 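Genes whose silencing strengthens cell killing by camptothecin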 (primary screen). System: MDA-MB-231 cells, a human breast cancer line. Reagent: single siRNA against human genes, 20 nM siRNA (0.8 pmol per well). Time to read-out: 120 h (drug added 48 h after transfection, read 72 h later). Challenge: camptothecin 20 nM (about EC30) for 72 h; vehicle 0.1% DMSO in parallel plates. Detection: 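CellTiter-Glo ATP signal, scaled to control siRNA as percent viability; sensitisation given as log2 of untreated divided by camptothecin-treated viability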. Direction: log2 vehicle/camptothecin viability: higher = stronger sensitisation to camptothecin; viability with camptothecin and viability without drug: higher = more viable cells. Hit rule: 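Each gene scored by redundant siRNA activity (RSA) over its individual siRNA ratios; a gene is called active at p < 0.001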.
In all, the deposit lists about 26,000 reagents; shown is an unselected part. 167 of them (0.63%) were called active. 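Calls are per gene from RSA p-values that are not deposited; an individual active-marked siRNA can sensitise only weakly.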 Unmarked entries are inactive. The numbers tell different reagents against one gene apart. Reagent sequences are not shown.

gene symbol,reagent,log2 vehicle/camptothecin viability,viability with camptothecin (% of control),viability without drug (% of control)
PDE9A (phosphodiesterase 9A),1,-0.282,102,83.6
PDE9A (phosphodiesterase 9A),2,-0.0795,101,95.5
PDE9A (phosphodiesterase 9A),3,-0.0107,88.2,87.6
PDE9A (phosphodiesterase 9A),4,-0.344,40.8,32.2
ADAMTS9 (ADAM metallopeptidase with thrombospondin type 1 motif 9),1,0.243,74.7,88.3
ADAMTS9 (ADAM metallopeptidase with thrombospondin type 1 motif 9),2,0.265,34.9,41.9
ADAMTS9 (ADAM metallopeptidase with thrombospondin type 1 motif 9),3,-0.0294,112,110
ADAMTS9 (ADAM metallopeptidase with thrombospondin type 1 motif 9),4,-0.168,101,90.1
SLC12A1,1,0.212,70.2,81.3
SLC12A1,2,-0.0638,80.4,76.9
SLC12A1,3,0.0243,70.3,71.5
SLC12A1,4,0.237,93.5,110
ARHGAP35 (Rho GTPase activating protein 35),1,-0.198,70.7,61.6
ARHGAP35 (Rho GTPase activating protein 35),2,-0.327,90.6,72.2
ARHGAP35 (Rho GTPase activating protein 35),3,0.317,14.2,17.6
ARHGAP35 (Rho GTPase activating protein 35),4,0.0109,48.1,48.5
MRGPRE (MAS related GPR family member E),1,0.0974,68.5,73.2
MRGPRE (MAS related GPR family member E),2,-0.132,87.8,80.1
MRGPRE (MAS related GPR family member E),3,0.216,51,59.2
TSLP (thymic stromal lymphopoietin),1,-0.273,104,85.9
TSLP (thymic stromal lymphopoietin),2,-0.102,90.8,84.6
TSLP (thymic stromal lymphopoietin),3,-0.217,129,111
DERL1 (derlin 1),1,-0.26,79.6,66.4
CTNNA2 (catenin alpha 2),1,-0.0141,66.9,66.3
CTNNA2 (catenin alpha 2),2,-0.422,70.9,52.9
CTNNA2 (catenin alpha 2),3,-0.404,84.8,64.1
CTNNA2 (catenin alpha 2),4,-0.339,57.1,45.1
TGFB1 (transforming growth factor beta 1),1,-0.131,75.3,68.7
TGFB1 (transforming growth factor beta 1),2,0.0991,31.5,33.7
TGFB1 (transforming growth factor beta 1),3,-0.0934,112,105
TGFB1 (transforming growth factor beta 1),4,-0.0706,103,98.3
AMHR2 (anti-Mullerian hormone receptor type 2),1,0.0323,68.5,70
AMHR2 (anti-Mullerian hormone receptor type 2),2,-0.162,97.9,87.5
AMHR2 (anti-Mullerian hormone receptor type 2),3,-0.0553,104,100
AMHR2 (anti-Mullerian hormone receptor type 2),4,-0.462,74.4,54
KCNK3 (potassium two pore domain channel subfamily K member 3),1,-0.124,77.1,70.7
KCNK3 (potassium two pore domain channel subfamily K member 3),2,-0.401,95,72
KCNK3 (potassium two pore domain channel subfamily K member 3),3,0.148,66.5,73.7
KCNK3 (potassium two pore domain channel subfamily K member 3),4,-0.0269,92.1,90.4
SLC25A27,1,-0.114,105,97.4
SLC25A27,2,-0.424,77.1,57.5
SLC25A27,3,-0.462,96.9,70.4
CYB561D2 (cytochrome b561 family member D2),1,-0.054,70.3,67.7
CYB561D2 (cytochrome b561 family member D2),2,-0.603,64.1,42.2
CYB561D2 (cytochrome b561 family member D2),3,0.0622,34.7,36.3
CYB561D2 (cytochrome b561 family member D2),4,-0.331,73.1,58.1
E2F5 (E2F transcription factor 5),1,-0.623,75.4,48.9
E2F5 (E2F transcription factor 5),2,-0.437,91.8,67.8
E2F5 (E2F transcription factor 5),3,-0.0846,109,103
E2F5 (E2F transcription factor 5),4,-0.174,89.5,79.3
TMEM108 (transmembrane protein 108),1,-0.463,90.6,65.7
TMEM108 (transmembrane protein 108),2,-0.138,65.8,59.7
TMEM108 (transmembrane protein 108),3,0.099,74.9,80.3
TMEM108 (transmembrane protein 108),4,-0.172,89.4,79.4
LPAR5 (lysophosphatidic acid receptor 5),1,-0.568,95.6,64.5
LPAR5 (lysophosphatidic acid receptor 5),2,-0.248,7.09,5.97
LPAR5 (lysophosphatidic acid receptor 5),3,-0.48,74.3,53.3
LPAR5 (lysophosphatidic acid receptor 5),4,-0.156,85.2,76.4
CRYGC (crystallin gamma C),1,0.45,46.1,62.9
CRYGC (crystallin gamma C),2,-0.348,78.3,61.5
CRYGC (crystallin gamma C),3,-0.0282,89.3,87.6
SCN3A (sodium voltage-gated channel alpha subunit 3),1,0.158,87.9,98.1
SCN3A (sodium voltage-gated channel alpha subunit 3),2,0.513,59.2,84.5
SCN3A (sodium voltage-gated channel alpha subunit 3),3,-0.724,94.9,57.4
SCN3A (sodium voltage-gated channel alpha subunit 3),4,-0.0446,73.2,71
FGFRL1 (fibroblast growth factor receptor like 1),1,-0.566,67.4,45.5
FGFRL1 (fibroblast growth factor receptor like 1),2,0.602,23.3,35.3
FGFRL1 (fibroblast growth factor receptor like 1),3,-0.0461,64.3,62.3
FGFRL1 (fibroblast growth factor receptor like 1),4,-0.0854,108,102

Entries listed so far whose gene name begins with K or k (4):
gene symbol,reagent,log2 vehicle/camptothecin viability,viability with camptothecin (% of control),viability without drug (% of control)
KCNK3 (potassium two pore domain channel subfamily K member 3),1,-0.124,77.1,70.7
KCNK3 (potassium two pore domain channel subfamily K member 3),2,-0.401,95,72
KCNK3 (potassium two pore domain channel subfamily K member 3),3,0.148,66.5,73.7
KCNK3 (potassium two pore domain channel subfamily K member 3),4,-0.0269,92.1,90.4
